{
  "source": "patent US20160304573A1",
  "about": "“FIBROMODULIN PEPTIDE” (The Regents of the University of California, priority 2010, published 2016)",
  "target": "T1, TGF-β3 (Homo sapiens (Human)) (UniProt P10600)",
  "T1 sequence": "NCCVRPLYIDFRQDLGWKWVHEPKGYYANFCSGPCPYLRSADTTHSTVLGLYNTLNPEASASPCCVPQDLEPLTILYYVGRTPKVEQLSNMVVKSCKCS",
  "assay": "biotinylated protein on avidin resin, unbound TGF-β read by Mv1Lu growth inhibition (MTT)",
  "note": "Results are given in words; binding and its absence hold for the method and conditions named. Some binding calls cover weakened binding; strength is not graded here.",
  "data": [
    {"binder": "Recombinant human FMOD (fibromodulin, whole protein) obtained from CHO-K1 (protein, not shown: small tags and cut ends) QYEDDPHWWFHYLRSQQSTYYDPYDPYPYETYEPYPYGVDEGPAYTYGSPSPPDPRDCPQECDCPPNFPTAMYCDNRNLKYLPFVPSRMKYVYFQNNQITSIQEGVFDNATGLLWIALHGNQITSDKVGRKVFSKLRHLERLYLDHNNLTRMPGPLPRSLRELHLDHNQISRVPNNALEGLENLTALYLQHNEIQEVGSSMRGLRSLILLDLSYNHLRKVPDGLPSALEQLYMEHNNVYTVPDSYFRGAPKLLYVRLSHNSLTNNGLASNTFNSSSLLELDLSYNQLQKIPPVNTNLENLYLQGNRINEFSISSFCTVVDVVNFSKLQVLRLDGNEIKRSAMPADAPLCLRLASLIEI", "values": [
      {"measurement": "binding", "result": "binds"}
    ]}
  ]
}
